Measurements as given in patent US8575152B2, “Non-steroidal compounds useful as glucocorticoid receptor modulators” (Merck Sharp & Dohme B.V., priority 2005, dated 2013).
Some of these results come from one statement about several compounds together. At least one compound was matched to its structure with a doubt left.

Columns and labels:
LPS-induced TNFα = assay: Anti-inflammatory activity in vivo: inhibition of LPS-induced TNFα in mice; conditions: 0.5 mg/kg LPS i.p., compound oral 1 hour before LPS, serum 1½ hours after LPS
[1] = system: Collagen type II-Induced Arthritis (paw swelling); assay: Anti-arthritic activity in vivo: Collagen type II-Induced Arthritis model in mice; conditions: male Dba/1 mice, therapeutic model, oral treatment for 3 weeks

Compound | ED50, inhibition of LPS-induced TNFα in serum (LPS-induced TNFα) [mg/kg] | ED50, inhibition of paw swelling (anti-arthritic activity) [1] [mg/kg]
CC1c2ccccc2C2CC(NC(=O)c3nonc3N)CCN2c2ccc(-c3ccncc3)cc21 [Example 26, Rel-4-amino-N-[(2R,10R,14bR)-1,2,3,4,10,14b-hexahydro-10-methyl-8-(pyridin-4-yl)dibenzo[c,f]pyrido[1,2-a]azepin-2-yl]-1,2,5-oxadiazole-3-carboxamide] | < 10 | 
Rel-2,2-dichloro-N-[(2R,10R,14bR)-8-cyano-1,2,3,4,10,14b-hexahydro-10-methyldibenzo[c,f]pyrido[1,2-a]azepin-2-yl]acetamide [Example 3] | < 10 | 
Cc1nnsc1C(=O)NC1CCN2c3ccc(C#N)cc3C(C)c3ccccc3C2C1 [Example 5, Rel-N-[(2R,10R,14bR)-8-cyano-1,2,3,4,10,14b-hexahydro-10-methyldibenzo[c,f]pyrido[1,2-a]azepin-2-yl]-4-methyl-1,2,3-thiadiazole-5-carboxamide] | < 10 | < 10
CC(=O)c1ccc2c(c1)C(C)c1ccccc1C1CC(NC(=O)c3snnc3C)CCN21 [Example 12, Rel-N-[(2R,10R,14bR)-8-acetyl-1,2,3,4,10,14b-hexahydro-10-methyldibenzo[c,f]pyrido[1,2-a]azepin-2-yl]-4-methyl-1,2,3-thiadiazole-5-carboxamide] | < 10 | < 10
Cc1nnsc1C(=O)N[C@@H]1CCN2c3ccc(-c4ccncc4)cc3[C@H](C)c3ccccc3[C@H]2C1 (relative stereo) [Example 20, Rel-N-[(2R,10R,14bR)-1,2,3,4,10,14b-hexahydro-10-methyl-8-(pyridin-4-yl)dibenzo[c,f]pyrido[1,2-a]azepin-2-yl]-4-methyl-1,2,3-thiadiazole-5-carboxamide] | < 10 | < 10
CC(=NO)c1ccc2c(c1)C(C)c1ccccc1C1CC(NC(=O)c3snnc3C)CCN21 [Example 54, Rel-N-[(2R,10R,14bR)-1,2,3,4,10,14b-hexahydro-8-[1-(hydroxyimino)ethyl]-10-methyldibenzo[c,f]pyrido[1,2-a]azepin-2-yl]-4-methyl-1,2,3-thiadiazole-5-carboxamide] | < 10 | < 10
CC1c2ccccc2C2CC(NC(=O)C(F)(F)Cl)CCN2c2ccc(-c3nnn(C)n3)cc21 [Example 38, Rel-2-chloro-2,2-difluoro-N-[(2R,10R,14bR)-1,2,3,4,10,14b-hexahydro-10-methyl-8-(2-methyltetrazol-5-yl)dibenzo[c,f]pyrido[1,2-a]azepin-2-yl]acetamide] | < 10 | 
Cc1nnsc1C(=O)NC1CCN2c3ccc(-c4nnn(C)n4)cc3C(C)c3ccccc3C2C1 [Example 39, Rel-N-[(2R,10R,14bR)-1,2,3,4,10,14b-hexahydro-10-methyl-8-(2-methyltetrazol-5-yl)dibenzo[c,f]pyrido[1,2-a]azepin-2-yl]-4-methyl-1,2,3-thiadiazole-5-carboxamide] | < 10 | < 10
CC1c2ccccc2C2CC(NC(=O)C(F)(F)Cl)CCN2c2ccc(-c3ccncc3)cc21 [Example 16, Rel-2-chloro-2,2-difluoro-N-[(2R,10R,14bR)-1,2,3,4,10,14b-hexahydro-10-methyl-8-(pyridin-4-yl)dibenzo[c,f]pyrido[1,2-a]azepin-2-yl]acetamide] | < 10 | 
Cc1nnsc1C(=O)NC1CCN2c3ccc(-c4ccncn4)cc3C(C)c3ccccc3C2C1 [Example 42, Rel-N-[(2R,10R,14bR)-1,2,3,4,10,14b-hexahydro-10-methyl-8-(pyrimidin-4-yl)dibenzo[c,f]pyrido[1,2-a]azepin-2-yl]-4-methyl-1,2,3-thiadiazole-5-carboxamide] | < 10 | 
